# Source: PubChem BioAssay (NCATS)
# Amino acid sequences for entries named in this document (tags omitted). A change or cut given only in a name is not applied to a line headed by its entry.
# UniProt Q14994: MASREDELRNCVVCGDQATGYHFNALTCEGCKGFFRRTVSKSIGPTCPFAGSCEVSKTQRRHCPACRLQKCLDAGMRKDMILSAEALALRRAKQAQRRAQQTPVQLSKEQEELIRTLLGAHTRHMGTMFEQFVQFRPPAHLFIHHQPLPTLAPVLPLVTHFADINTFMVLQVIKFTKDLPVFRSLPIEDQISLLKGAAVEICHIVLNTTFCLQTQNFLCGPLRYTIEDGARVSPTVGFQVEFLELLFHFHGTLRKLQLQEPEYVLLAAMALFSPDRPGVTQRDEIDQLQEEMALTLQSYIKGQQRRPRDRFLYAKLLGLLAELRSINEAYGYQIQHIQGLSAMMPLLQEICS
# UniProt P33261, whole entry, looked up: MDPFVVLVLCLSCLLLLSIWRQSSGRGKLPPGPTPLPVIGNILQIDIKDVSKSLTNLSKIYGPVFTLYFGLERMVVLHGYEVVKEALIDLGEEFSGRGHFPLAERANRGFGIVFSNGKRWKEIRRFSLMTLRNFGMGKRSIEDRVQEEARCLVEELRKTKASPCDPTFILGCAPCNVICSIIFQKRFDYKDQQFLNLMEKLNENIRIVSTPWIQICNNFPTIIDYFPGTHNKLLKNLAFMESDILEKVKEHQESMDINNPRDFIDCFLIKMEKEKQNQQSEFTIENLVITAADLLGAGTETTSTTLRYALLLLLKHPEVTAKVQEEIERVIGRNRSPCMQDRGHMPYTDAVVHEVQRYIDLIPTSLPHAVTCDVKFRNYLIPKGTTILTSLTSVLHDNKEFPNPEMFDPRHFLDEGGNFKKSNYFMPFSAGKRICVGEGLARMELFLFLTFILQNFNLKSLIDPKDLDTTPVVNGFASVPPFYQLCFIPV
# UniProt P05177, whole entry, looked up: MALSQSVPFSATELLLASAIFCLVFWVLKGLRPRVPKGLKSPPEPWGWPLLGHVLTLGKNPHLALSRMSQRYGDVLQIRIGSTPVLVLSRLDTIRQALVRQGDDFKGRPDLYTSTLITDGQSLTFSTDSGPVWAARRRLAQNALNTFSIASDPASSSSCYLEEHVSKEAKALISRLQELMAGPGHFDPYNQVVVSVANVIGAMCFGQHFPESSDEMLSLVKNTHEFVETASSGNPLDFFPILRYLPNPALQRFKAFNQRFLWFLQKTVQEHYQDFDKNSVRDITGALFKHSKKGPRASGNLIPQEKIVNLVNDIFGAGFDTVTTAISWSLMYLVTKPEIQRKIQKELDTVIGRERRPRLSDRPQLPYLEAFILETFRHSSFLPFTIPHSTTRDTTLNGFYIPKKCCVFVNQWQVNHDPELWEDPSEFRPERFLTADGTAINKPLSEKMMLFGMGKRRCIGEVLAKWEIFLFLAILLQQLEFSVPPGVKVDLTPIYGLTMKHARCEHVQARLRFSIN
# UniProt O75469: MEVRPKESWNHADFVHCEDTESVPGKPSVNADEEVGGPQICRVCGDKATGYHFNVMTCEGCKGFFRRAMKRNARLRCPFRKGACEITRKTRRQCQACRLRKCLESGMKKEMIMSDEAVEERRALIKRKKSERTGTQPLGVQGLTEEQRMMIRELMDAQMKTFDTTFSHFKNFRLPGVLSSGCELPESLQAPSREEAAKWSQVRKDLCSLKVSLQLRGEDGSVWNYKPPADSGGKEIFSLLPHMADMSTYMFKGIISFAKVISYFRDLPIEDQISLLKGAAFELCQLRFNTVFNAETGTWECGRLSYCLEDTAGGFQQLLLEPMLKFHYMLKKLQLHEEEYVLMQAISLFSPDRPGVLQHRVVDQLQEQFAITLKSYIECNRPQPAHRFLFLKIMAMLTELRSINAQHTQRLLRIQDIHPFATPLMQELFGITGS
# UniProt P11712, whole entry, looked up: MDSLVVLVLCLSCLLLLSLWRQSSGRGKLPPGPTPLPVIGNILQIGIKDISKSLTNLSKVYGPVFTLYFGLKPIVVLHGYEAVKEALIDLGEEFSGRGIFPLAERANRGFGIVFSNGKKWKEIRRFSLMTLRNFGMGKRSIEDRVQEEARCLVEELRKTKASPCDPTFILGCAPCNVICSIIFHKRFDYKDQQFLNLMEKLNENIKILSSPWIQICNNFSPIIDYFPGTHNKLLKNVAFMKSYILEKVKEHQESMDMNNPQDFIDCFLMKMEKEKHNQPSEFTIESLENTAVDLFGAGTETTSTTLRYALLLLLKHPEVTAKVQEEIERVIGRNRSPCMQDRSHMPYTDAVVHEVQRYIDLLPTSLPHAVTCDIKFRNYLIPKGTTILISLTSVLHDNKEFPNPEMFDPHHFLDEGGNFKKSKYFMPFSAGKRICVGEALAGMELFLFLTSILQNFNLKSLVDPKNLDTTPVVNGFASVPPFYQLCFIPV
# UniProt P08684, whole entry, looked up: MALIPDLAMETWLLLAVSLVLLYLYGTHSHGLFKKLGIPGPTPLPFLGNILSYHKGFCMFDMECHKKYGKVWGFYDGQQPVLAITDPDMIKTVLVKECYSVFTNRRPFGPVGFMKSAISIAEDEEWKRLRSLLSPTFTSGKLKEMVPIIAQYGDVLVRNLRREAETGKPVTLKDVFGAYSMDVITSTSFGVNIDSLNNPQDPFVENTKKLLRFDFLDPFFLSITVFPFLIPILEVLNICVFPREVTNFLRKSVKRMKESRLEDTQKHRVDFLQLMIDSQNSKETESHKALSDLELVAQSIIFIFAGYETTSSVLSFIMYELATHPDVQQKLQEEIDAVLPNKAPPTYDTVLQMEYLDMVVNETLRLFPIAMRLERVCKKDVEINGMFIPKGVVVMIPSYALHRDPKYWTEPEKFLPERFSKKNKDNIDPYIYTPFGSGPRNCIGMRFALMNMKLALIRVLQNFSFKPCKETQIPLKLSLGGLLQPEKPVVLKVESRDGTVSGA
# UniProt Q03181: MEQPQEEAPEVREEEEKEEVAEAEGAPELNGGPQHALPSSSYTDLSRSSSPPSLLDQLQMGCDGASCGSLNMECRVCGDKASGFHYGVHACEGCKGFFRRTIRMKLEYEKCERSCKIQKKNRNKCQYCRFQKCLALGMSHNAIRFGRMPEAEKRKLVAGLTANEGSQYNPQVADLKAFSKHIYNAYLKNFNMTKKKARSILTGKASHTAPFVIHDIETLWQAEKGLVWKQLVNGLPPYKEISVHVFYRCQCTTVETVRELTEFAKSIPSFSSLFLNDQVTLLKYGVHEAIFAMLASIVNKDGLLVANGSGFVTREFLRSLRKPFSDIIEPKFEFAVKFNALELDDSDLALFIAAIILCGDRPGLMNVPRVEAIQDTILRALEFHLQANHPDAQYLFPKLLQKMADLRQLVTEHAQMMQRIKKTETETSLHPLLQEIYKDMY
# UniProt P10635, whole entry, looked up: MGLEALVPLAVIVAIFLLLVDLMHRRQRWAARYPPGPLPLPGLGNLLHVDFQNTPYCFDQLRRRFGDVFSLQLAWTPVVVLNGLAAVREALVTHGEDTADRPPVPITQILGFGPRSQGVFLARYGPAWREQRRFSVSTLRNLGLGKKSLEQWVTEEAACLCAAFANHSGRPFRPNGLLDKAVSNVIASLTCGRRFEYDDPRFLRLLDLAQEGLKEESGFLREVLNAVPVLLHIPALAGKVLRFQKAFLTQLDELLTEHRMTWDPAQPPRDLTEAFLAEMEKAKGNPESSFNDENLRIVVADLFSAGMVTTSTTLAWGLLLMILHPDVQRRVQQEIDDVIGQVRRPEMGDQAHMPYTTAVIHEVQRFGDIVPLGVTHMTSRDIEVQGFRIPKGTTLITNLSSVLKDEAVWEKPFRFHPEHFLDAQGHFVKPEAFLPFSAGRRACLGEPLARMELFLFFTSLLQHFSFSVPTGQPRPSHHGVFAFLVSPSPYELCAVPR
# Inconclusive results, whose numbers are uncertain, are shown with a selection of clear calls. For some of these results: Potencies of inconclusive entries are doubtful fits and often do not repeat. Active and inactive are the calls of the source. Unless noted, calls come from the whole dose curve; as a rule, active = well fitted curve in the direction sought with a large enough effect; inconclusive = small, poorly fitted or top-dose-only effect, or another doubt; inactive = no such curve, though single readings can be large; an effect the other way counts as inactive or inconclusive.
# Assays:
# [1] = Viability counterscreen for antagonist of constitutive androstane receptor (CAR) against the NCATS DSHEA and TCM libraries (AID 1794837)
# Procedure, shortened: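 Cells: HepG2 line carrying CYP2B6 reporter and hCAR, seeded and attached 5 h. Then pin-transferred test substances plus agonist CITCO at 48 uM final; 24 h incubation; fluorogenic viability reagent, 1 h.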
# [2] = molecular target: Nuclear receptor subfamily 1 group I member 3 (Homo sapiens) (UniProt Q14994); assay: Primary qHTS for agonist of constitutive androstane receptor (CAR) against the NCATS DSHEA and TCM libraries (AID 1794839); note: potency is the fitted concentration of half-maximal effect
# Procedure, shortened: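 qHTS, agonist mode: HepG2-CYP2B6-hCAR, 2,500 cells/well, 5 h attach; cpds + PK11195 0.75 µM final; 24 h, 37 °C, 5% CO2. Readouts: CellTiter-Fluor (405/540 nm), then ONE-Glo luminescence.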
# [3] = molecular target: Cytochrome P450 2C19 (Homo sapiens) (UniProt P33261); assay: qHTS for inhibitors of CYP2C19 against the NCATS DSHEA and TCM libraries (AID 1919974);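 note: luminescence from luciferin released by CYP2C19 oxidation of a pro-luciferin substrate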; note: potency is the fitted concentration of half-maximal effect; for activity change, negative = inhibition: % is set by controls: 0 for no effect and ±100 for the full control effect
# Procedure, shortened: (§1)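 Read-out is luminescence after P450-Glo detection (30 min, RT). Before that: 15 min compound–enzyme preincubation, then 30-45 min reaction with 1x NADPH regeneration solution, substrate concentration isoform-specific.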
# [4] = KB-3-1 P-gp reporter qHTS against the NCATS DSHEA and TCM libraries (AID 1919975); note: potency is the fitted concentration of half-maximal effect
# Procedure, shortened: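 KB-3-1 parental line, 1536-well qHTS: cells seeded, ~4 h attachment, pintool compound addition, ~72 h at 37C, then CellTiter-Glo, 30 min RT, luminescence. Concentration-response format.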
# [5] = molecular target: Cytochrome P450 1A2 (Homo sapiens) (UniProt P05177); assay: qHTS for inhibitors of CYPIA2 against the NCATS DSHEA and TCM libraries (AID 1919976); note: potency is the fitted concentration of half-maximal effect;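 for activity change, negative = inhibition: light from luciferin formed by CYP1A2 from a pro-luciferin substrate; % is set by controls: 0 for no effect and ±100 for the full control effect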
# Procedure, shortened: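 CYP1A2 + luciferin substrate, 100 mM KPO4-type buffer; cmpd 15 min RT; 1x NADPH regen, 30-45 min RT dark; detection reagent 30 min RT; luminescence. Minus-enzyme wells as background; furafylline intraplate control.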
# [6] = KB-8-5-11 P-gp reporter qHTS against the NCATS DSHEA and TCM libraries (AID 1919977); note: potency is the fitted concentration of half-maximal effect
# Procedure, shortened: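 KB-8-5-11, 500 cells/well, DMEM/10% FBS without colchicine; 4 h attach; cpd titrations, 72 h, 37C/5% CO2; CellTiter-Glo, 30 min RT, luminescence.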
# [7] = molecular target: Nuclear receptor subfamily 1 group I member 2 (Homo sapiens) (UniProt O75469); assay: Dual reporter qHTS for antagonist of Pregnane X Receptor (hPXR) against the NCATS DSHEA and TCM libraries: Luminescence Readout (AID 1920060); conditions: hPXR dual reporter cells, luciferase luminescence, antagonist mode; activity change, negative = inhibition: at 40 µM (top of the series) unless noted
# Procedure, shortened: (§2)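 hPXR-Luc HepG2 cells exposed 24 h at 37 C to compounds with 2 uM rifampicin in antagonist mode; luciferase luminescence measured by ONE-Glo, with CellTiter-Fluor viability read beforehand.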
# [8] = molecular target: Cytochrome P450 2C9 (Homo sapiens) (UniProt P11712); assay: qHTS for inhibitors of CYP2C9 against the NCATS DSHEA and TCM libraries (AID 1919973); note: potency is the fitted concentration of half-maximal effect;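 for activity change, negative = inhibition: luminogenic pro-luciferin CYP2C9 substrate turned into luciferin with NADPH regeneration; % is set by controls: 0 for no effect and ±100 for the full control effect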
# Procedure, shortened: as §1
# [9] = molecular target: Nuclear receptor subfamily 1 group I member 2 (Homo sapiens) (UniProt O75469); assay: Dual reporter qHTS for agonist of Pregnane X Receptor (hPXR) against the NCATS DSHEA and TCM libraries: Luminescence readout (AID 1920059); note: potency is the fitted concentration of half-maximal effect
# Procedure, shortened: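 hPXR-LucHepG2 cells in phenol red-free DMEM with 5% charcoal-stripped FBS, 2000 cells/well, attached 5 h, then exposed 24 h at 37C to compounds; rifampicin as positive agonist control (2.8 nM–92 uM). Luciferase luminescence read.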
# [10] = HepG2 viability counterscreen (readout 2: ATP content) against the NCATS DSHEA and TCM libraries (AID 1794840); conditions: ATP content luminescence
# Procedure, shortened: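 Same wells read twice: first fluorescence from cleaved GF-AFC substrate (25 uM final, 30 min, 37C) for live-cell protease, then CellTiter-Glo luminescence after 30 min at room temperature for ATP. HepG2 cells were exposed ~24 h to substances.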
# [11] = Viability counterscreen for agonist of constitutive androstane receptor (CAR) against the NCATS DSHEA and TCM libraries (AID 1794838);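 note: HepG2 cells with CYP2B6 reporter and hCAR plus 0.75 µM PK11195 antagonist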; note: potency is the fitted concentration of half-maximal effect; for activity change, negative = cytotoxicity: 0% is about no effect
# Procedure, shortened: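 Cell health was measured as CellTiter-Fluor signal in HepG2-CYP2B6-hCAR cells treated for 24 h with substances alongside the hCAR antagonist PK11195 (0.75 uM final).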
# [12] = Cell Viability - N2a (AID 540); conditions: N2a mouse neuroblastoma cell viability; activity change, negative = cytotoxicity: at 92.2 µM (top of the series);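 note: cells exposed to compound for 40 h at 37 °C; plate controls were DMSO alone for no effect and tamoxifen control for full effect; nearly all actives have a fitted effect of over 45% in size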
# Procedure, shortened: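 Luminescent ATP signal (CellTiter-Glo, 20 min at room temperature) served as the viability read-out after N2a cells were treated with compounds for 40 hours at 37 °C. Concentration-response data were fitted to the Hill equation for AC50.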
# [13] = molecular target: Cytochrome P450 3A4 (Homo sapiens) (UniProt P08684); assay: qHTS Assay for Inhibitors and Substrates of Cytochrome P450 3A4 (AID 884); note: % is set by controls: 0 for no effect and ±100 for the full control effect; nearly all actives have a fitted effect of over 50% in size
# Procedure, shortened: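 20 nM human CYP3A4 with 25 uM Luciferin-PPXE (at KM) in 200 mM KPO4, preincubated 10 min with compound; NADPH regeneration started a 60 min RT reaction. Luciferin detected by luminescence, normalized to 57 uM ketoconazole as full inhibition.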
# [14] = MultiTox-Fluor Cytotoxicity Assay - LYMP1-001 - Dead Cells (AID 946); conditions: LYMP1-001 lymphoblastoid cells, dead-cell protease fluorescence; cytotoxicity (dead cells): at 92.2 µM (top of the series);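 note: cells exposed to compound for 16 h; 0% = DMSO and 100% = tetraoctylammonium bromide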
# Procedure, shortened: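 LYMP1-001 lymphoblastoid cells (2500/well) treated 16 h at 37 C. Dead-cell protease cleavage of bis-AAF-R110 read at Ex/Em 485/520. Normalized to DMSO and 15 uM tetraoctylammonium bromide; AC50 from Hill fits.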
# [15] = molecular target: Peroxisome proliferator-activated receptor delta (Homo sapiens) (UniProt Q03181); assay: qHTS assay for small molecule antagonists of peroxisome proliferator-activated receptor delta signaling (AID 588535; active = well fitted inhibition curve with a large enough effect in the signal ratio, with a control signal flat, not every such curve was filed as active; inconclusive = small, poorly fitted or top-dose-only effect, or effect the other way, or a change in a side signal; inactive = no such curve, though single readings can be large or run the other way; the % refers to the signal ratio); conditions: HEK293T PPARd-UAS-bla, beta-lactamase FRET ratio, 18 h; activity change, negative = inhibition: at 76.7 µM (top of the series)
# Procedure, shortened: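 Reporter: UAS-bla under PPAR-delta response element, HEK293T host. Medium: 2% charcoal/dextran FBS. Dosing: titration, 18 hrs, 37 C. Detection: CCF4, 2 hrs RT, 405 ex/460 and 530 em.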
# [16] = qHTS assay for small molecule disruptors of the mitochondrial membrane potential - 1 hr assay (AID 651754; calls by dose curve; note: % is set by controls: 0 for no effect and ±100 for the full control effect; nearly all actives have a fitted effect of over 35% in size); conditions: ratio change, negative = depolarisation: at 92.2 µM (top of the series)
# Procedure, shortened: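 HepG2, 2,000 cells/well, overnight attachment; cpd or DMSO 1 hr, 37C/5% CO2; Mito-MPS dye 30 min, 37C; fluorescence monomer (490/535) and aggregate (540/590).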
# [17] = qHTS assay to identify small molecules that stimulate interleukin-8 (IL-8) secretion (AID 651758; active = well fitted activation curve with a large enough effect in the signal ratio; inconclusive = small, poorly fitted or top-dose-only effect, or effect the other way, or a change in a side signal; the % refers to the signal ratio; note: 0% is about no effect); conditions: HTRF ratio (665/615); activation: at 92.2 µM (top of the series)
# Procedure, shortened: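 THP-1, 2000 cells/well; cpd 16 h, 37 C; add cryptate + XL665 anti-IL-8 Abs; RT 1-3 h; TR-FRET read.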
# [18] = molecular target: Cytochrome P450 2D6 (Homo sapiens) (UniProt P10635); assay: qHTS for inhibitors of CYP2D6 against the NCATS DSHEA and TCM libraries (AID 1919972); note: potency is the fitted concentration of half-maximal effect
# Procedure, shortened: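 Luminescent P450-Glo read-out of CYP2D6 turnover of a luciferin substrate after NADPH-driven reaction of 30-45 min at room temperature. Compounds were first preincubated 15 min with enzyme at titrated concentrations; quinidine was the intraplate control.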
# [19] = Dual reporter qHTS for antagonist of Pregnane X Receptor (hPXR) against the NCATS DSHEA and TCM libraries: Fluorescence Readout (AID 1920061)
# Procedure, shortened: as §2
smiles,measurement,setting,value
CC(=O)O[C@@H]1CC[C@@]2(C)[C@@H](CC[C@]3(C)[C@@H]2C(=O)C=C2[C@@H]4[C@@H](C)[C@H](C)CC[C@]4(C)CC[C@]23C)[C@@]1(C)C(=O)O,Potency,[1],"inconclusive: 15.8 µM [cytotoxic, full curve]"
same,Potency,[2],"inconclusive: 0.891 µM [activator, full curve, poor fit]"
same,Potency,[3],active: 3.55 µM
same,Potency,[4],"inconclusive: 25.1 µM [inhibitor, single point]"
same,Potency,[5],"inconclusive: 7.94 µM [inhibitor, partial curve]"
same,Potency,[6],"inconclusive: 25.1 µM [inhibitor, single point]"
same,Potency,[7],"inconclusive: 7.94 µM [inhibitor, partial curve, poor fit]"
Oc1cc(O)c2c(c1)O[C@@H](c1cc(O)c(O)c(O)c1)[C@H](O)C2,Potency,[2],"inconclusive: 10 µM [activator, partial curve, poor fit]"
same,Potency,[8],"inconclusive: 3.98 µM [inhibitor, full curve]"
same,Potency,[9],"inconclusive: 7.08 µM [activator, full curve]"
O=C(/C=C/c1ccc(O)c(O)c1)O[C@H]1[C@H](O)C[C@](O)(C(=O)O)C[C@H]1OC(=O)/C=C/c1ccc(O)c(O)c1,Potency,[10],"inconclusive: 0.0794 µM [cytotoxic, full curve]"
same,Potency,[3],"inconclusive: 28.2 µM [inhibitor, single point]"
O=c1cc(-c2ccc(O)cc2)oc2cc(O[C@@H]3O[C@H](CO)[C@@H](O)[C@H](O)[C@H]3O[C@@H]3OC[C@](O)(CO)[C@H]3O)cc(O)c12,Potency,[11],inactive
same,Potency,[8],active: 8.91 µM
same,Potency,[3],"inconclusive: 14.1 µM [inhibitor, partial curve]"
same,Potency,[5],inactive
C[C@H]1[C@H](C)CC[C@]2(C(=O)O)CC[C@]3(C)C(=CC[C@@H]4[C@@]5(C)CC[C@H](O)C(C)(C)[C@@H]5CC[C@]43C)[C@H]12,Potency,[11],"inconclusive: 14.1 µM [activator, partial curve, poor fit]"
same,Potency,[9],"inconclusive: 12.6 µM [activator, full curve]"
C=C(C)C1CC=C(C)C(O)C1 (centres undefined),Potency,[12],inactive
same,Potency,[13],inactive
same,Potency,[14],inactive
same,"activity change, negative = inhibition",[15],inconclusive: -34.9%
same,Potency,[16],inactive
same,activation,[17],inconclusive: -7.69%
same,Potency,[10],"inconclusive: 12.6 µM [rising, full curve, poor fit]"
same,Potency,[8],inactive
same,Potency,[3],"inconclusive: 3.98 µM [inhibitor, full curve]"
same,Potency,[5],"inconclusive: 10 µM [inhibitor, partial curve]"
O=C(/C=C/c1ccc(O)c(O)c1)OC1[C@H](O)CC(O)(C(=O)O)C[C@@H]1O (some centres undefined),Potency,[10],"inconclusive: 0.0251 µM [cytotoxic, full curve]"
same,Potency,[18],"inconclusive: 0.0355 µM [inhibitor, full curve]"
same,Potency,[3],inactive
C[C@@H]1O[C@@H](OC[C@H]2OC(Oc3c(-c4ccc(O)c(O)c4)oc4cc(O)cc(O)c4c3=O)[C@H](O)[C@@H](O)[C@@H]2O)[C@H](O)[C@H](O)[C@H]1O (some centres undefined),Potency,[1],inactive
same,Potency,[8],inactive
same,Potency,[19],"inconclusive: 35.5 µM [inhibitor, partial curve, poor fit]"

# Reprinted from the listing (2 entries):
smiles,measurement,setting,value
C[C@@H]1O[C@@H](OC[C@H]2OC(Oc3c(-c4ccc(O)c(O)c4)oc4cc(O)cc(O)c4c3=O)[C@H](O)[C@@H](O)[C@@H]2O)[C@H](O)[C@H](O)[C@H]1O (some centres undefined),Potency,[8],inactive
same,Potency,[19],"inconclusive: 35.5 µM [inhibitor, partial curve, poor fit]"
